The results in this text go back to the supplement of paper PMC6658780.

Counter-ions that a name gives are not always drawn. ± gives the standard deviation of the averaged measurements. This is one part of the list. Single values are uncertain here, since repeats match poorly.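 The A. baumannii strains are clinical isolates chosen because they resist the partner antibiotic, and the screen looks for drugs that restore that antibiotic's effect. The reading at the start of incubation is subtracted to remove background from coloured compounds.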

One test concerns Acinetobacter baumannii WP-487. Put plainly: percent growth inhibition of drug + antibiotic vs DMSO control; higher = more growth inhibition. The note with it: antibiotic (0.125x MIC): colistin; 7 µM. Here is the method:
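Prestwick drugs tested at 20 uM and 7 uM with an antibiotic at 0.125x MIC (16 mg/L when MIC >128 mg/L) in cation-adjusted Mueller-Hinton broth, 384-well plates, duplicate runs on different days. Percent growth inhibition was computed from OD600 (24 h minus 0 h) relative to DMSO-only wells. Drug + 0.1% DMSO (no antibiotic) wells are also given. Only hits (max corrected inhibition > mean + 3SD) are listed. A. baumannii: NCTC-13301 was used for MEM/CIP/GEN/TGC and WP-487 for colistin. Duplicates with colistin are strongly discordant (run 2 near 100% for most drugs).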
As to `CC(C)c1c(CN(C)C(C)Cc2ccccc2)n(C)n(-c2ccccc2)c1=O` (stereo not given) [Famprofazone], the percent growth inhibition is -3.84 ± 4.2%.
On the same count and under the same terms, with `Cc1cc(C(C#N)c2ccc(Cl)cc2)c(Cl)cc1NC(=O)c1cc(I)cc(I)c1O` (stereo not given) [Closantel] the figure was 52.5 ± 67%.
The same measure, in the same setting: in the case of `C[C@]12CC[C@@H]3c4ccc(OC(=O)N(CCCl)CCCl)cc4CC[C@H]3[C@@H]1CC[C@@H]2O` [Estramustine] it was 53.7 ± 66%; in that of `c1ccc2c(c1)Nc1ccccc1S2` [Phenothiazine], 5.54 ± 2.2%; in that of `CC(Cc1ccccc1)NCCC(c1ccccc1)c1ccccc1` (stereo not given) [Prenylamine lactate], 5.12 ± 14%.
On the same count and under the same terms, in the case of `COc1ccc(CCN2CCC(Nc3nc4ccccc4n3Cc3ccc(F)cc3)CC2)cc1` [Astemizole] it was 10.8 ± 19%.
In the case of `Fc1ccc(C(OCCN2CCN(CCCc3ccccc3)CC2)c2ccc(F)cc2)cc1`, the percent growth inhibition was 5.15 ± 6.6%.
Same read-out and setting: with `OC(c1ccccc1)(c1ccccc1)C1CCNCC1` [Azacyclonol] the figure was -4.95 ± 8.7%.
The same measure, in the same setting: in the case of `O=c1c2ccccc2[se]n1-c1ccccc1` [Ebselen] it was 51.4 ± 55%; in that of `CN1[C@@H]2CC[C@H]1C[C@@H](OC1c3ccccc3CCc3ccccc31)C2` [Deptropine citrate], 42 ± 59%.
As for `CN[C@@H]1C[C@@H](c2ccc(Cl)c(Cl)c2)c2ccccc21` [Indatraline hydrochloride], the percent growth inhibition turned out to be 13.9 ± 7.2%.
The same measure, in the same setting: with `CC(=O)O[C@H]1CC[C@@]2(C)C(=CC[C@@H]3[C@@H]2CC[C@]2(C)C(=O)CC[C@@H]32)C1` [Dehydroisoandosterone 3-acetate] the figure was -0.867 ± 5%.
Same read-out and setting: with `CN(C)C(=O)Oc1ccc[n+](C)c1` [Pyridostigmine iodide] the figure was 47.9 ± 74%; with `CCC(=O)O[C@H]1CC[C@H]2[C@@H]3CCC4=CC(=O)CC[C@]4(C)[C@H]3CC[C@]12C` [Testosterone propionate], 0.255 ± 6.3%; with `O=c1[nH]c2ccccc2n1C1CCN(CCCC(c2ccc(F)cc2)c2ccc(F)cc2)CC1` [Pimozide], 50.6 ± 56%.

The same test, now with this note: antibiotic (0.125x MIC): colistin; 20 µM.
In the case of `CC(C)c1c(CN(C)C(C)Cc2ccccc2)n(C)n(-c2ccccc2)c1=O` (stereo not given) [Famprofazone], the percent growth inhibition turned out to be 48 ± 71%.
Same read-out and setting: with `Cc1cc(C(C#N)c2ccc(Cl)cc2)c(Cl)cc1NC(=O)c1cc(I)cc(I)c1O` (stereo not given) [Closantel] the figure was 51.6 ± 55%.
The same measure, in the same setting: in the case of `C[C@]12CC[C@@H]3c4ccc(OC(=O)N(CCCl)CCCl)cc4CC[C@H]3[C@@H]1CC[C@@H]2O` [Estramustine] it was 11.9 ± 2.1%.
Still for that read-out and setting: with `c1ccc2c(c1)Nc1ccccc1S2` [Phenothiazine] the figure was 51.8 ± 51%; with `CC(Cc1ccccc1)NCCC(c1ccccc1)c1ccccc1` (stereo not given) [Prenylamine lactate], 53.4 ± 66%; with `COc1ccc(CCN2CCC(Nc3nc4ccccc4n3Cc3ccc(F)cc3)CC2)cc1` [Astemizole], 51.1 ± 69%.
As for `Fc1ccc(C(OCCN2CCN(CCCc3ccccc3)CC2)c2ccc(F)cc2)cc1`, the percent growth inhibition came out at 57.7 ± 60%.
Take `OC(c1ccccc1)(c1ccccc1)C1CCNCC1` [Azacyclonol]: the percent growth inhibition worked out at 40 ± 60%.
On to `O=c1c2ccccc2[se]n1-c1ccccc1` [Ebselen], for which the percent growth inhibition was 51.7 ± 38%.
On the same count and under the same terms, with `CN1[C@@H]2CC[C@H]1C[C@@H](OC1c3ccccc3CCc3ccccc31)C2` [Deptropine citrate] the figure was 52.4 ± 67%.
The same measure, in the same setting: with `CN[C@@H]1C[C@@H](c2ccc(Cl)c(Cl)c2)c2ccccc21` [Indatraline hydrochloride] the figure was 57 ± 61%; with `CC(=O)O[C@H]1CC[C@@]2(C)C(=CC[C@@H]3[C@@H]2CC[C@]2(C)C(=O)CC[C@@H]32)C1` [Dehydroisoandosterone 3-acetate], 49.1 ± 72%; with `CN(C)C(=O)Oc1ccc[n+](C)c1` [Pyridostigmine iodide], 7.15 ± 15%.
On the same count and under the same terms, in the case of `CCC(=O)O[C@H]1CC[C@H]2[C@@H]3CCC4=CC(=O)CC[C@]4(C)[C@H]3CC[C@]12C` [Testosterone propionate] it was 46.8 ± 66%; in that of `O=c1[nH]c2ccccc2n1C1CCN(CCCC(c2ccc(F)cc2)c2ccc(F)cc2)CC1` [Pimozide], 59.1 ± 47%.
